In PubChem BioAssay AID2685 (National Center for Advancing Translational Sciences (NCATS), 2010) one finds cell number change and AC50 data, which are given here for 39 compounds.

In general, AC50 refers to the concentration giving half of the maximal activity seen. Low readings indicate greater potency, high ones weaker potency.

The assay can be described thus: qHTS Assay for Lipid Storage Modulators in Drosophila S3 Cells.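 On cell number change: cells counted by Cell Tracker Red CMTPX staining in the red channel.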 The conditions noted are these: BODIPY lipid droplet fluorescence, 18-24 h; for cell number change: measured here: cell count max response, cells fed with added oleic acid. In outline:
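Drosophila S3 cells got compounds at several concentrations plus oleic acid (400 uM solution). Laser-scanning cytometry with 488 nm excitation read lipid droplets at 500-530 nm and cells at 575-640 nm. Percent activity was relative to 20 uM Triacsin C.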

Setting [1] is: measured here: lipid fluorescence (Fed channel) AC50, cells fed with added oleic acid.
Where [2] appears, read: measured here: cell number channel AC50, cells fed with added oleic acid.

SMILES strings stand for the structures. This is one part of the list. These are further read-outs of the screen, such as a control signal, another cell line or another target. No call is given for them. The list favours compounds with an active or inconclusive main result. Words in brackets tell the shape of the fitted curve; partial curves, single points and poor fits give uncertain potencies.

As to `O=c1[nH]c2ccccc2c2nc3ccccn3c12`, the cell number change was -5.71%.

For the compound `C=CCNC1=C(Cl)C(=O)N(c2ccccc2Cl)C1=O`, the cell number change was found to be 2.05%. The concentration at half-maximal activity (AC50) under setting [1] was 0.184 µM [falling, full curve, poor fit].

Regarding `CCNC(=O)COc1ccc(/C=N/NC(=O)c2cccnc2)cc1OC`, the cell number change is -33.4%. The AC50 under setting [2] is 0.708 µM [falling, full curve, poor fit].

For `CCC(=O)Nc1ccc(N2CCN(C(=O)c3ccccc3C)CC2)cc1`, the cell number change was found to be 25.3%. Also, the AC50 under setting [1] is 29.1 µM [rising, single point].

For the compound `COc1ccc(/C=C(/NC(=O)c2ccco2)C(=O)NCCc2ccccc2)cc1`, the cell number change was 4.82%. Besides, the AC50 under setting [2] is 0.058 µM [rising, full curve, poor fit]. Moreover, the AC50 under setting [1] was 29.1 µM [rising, single point].

As for `CC(=O)Nc1ccc(NC(=O)CSc2ccc3nnc(-c4ccccn4)n3n2)cc1`, the cell number change was -0.601%. The half-maximal activity concentration (AC50) under setting [1] is 0.731 µM [rising, full curve, poor fit].

For `C=CCn1c(COc2ccc(F)cc2)nnc1SCC(=O)NC1CCS(=O)(=O)C1` (stereo not given), the cell number change was 13.5%. Further, the concentration at half-maximal activity (AC50) under setting [1] was 2.31 µM [rising, partial curve, poor fit].

As to `Cc1ccc(C)c(N(CC(=O)N2CCCCCC2)S(C)(=O)=O)c1`, the cell number change amounted to 8.21%. Further, the half-maximal activity concentration (AC50) under setting [1] was 16.4 µM [rising, partial curve].

In the case of `CCCC[C@H]1COCCS(=O)(=O)N1Cc1ccc(Br)cc1`, the cell number change was -9.28%. Further, the AC50 under setting [1] was 29.1 µM [falling, single point].

For `O=C(CN1CCCC1)Nc1ccc2c(c1)CCC2`, the cell number change was -37.2%. Moreover, the AC50 under setting [1] is 0.731 µM [falling, full curve].

`NS(=O)(=O)c1ccc(NC(=O)CN2CCN(S(=O)(=O)c3cccs3)CC2)cc1`: the cell number change was 24.5%.

`C#CCOCCOCCOCCNc1nc(N2CCN(C(=O)[C@H](CCC(=O)O)n3cc(C(N)CC(C)C)nn3)CC2)nc(N2CCN(C(=O)[C@H](CCC(=O)O)n3cc(C(N)[C@H](C)CC)nn3)CC2)n1` (stereo not given in full): the cell number change is -20%. Further, the concentration at half-maximal activity (AC50) under setting [1] was 5.8 µM [falling, full curve].

As to `CSc1snnc1-c1ccccc1`, the AC50 is 0.82 µM [rising, single point] under setting [2] and 1.03 µM [rising, single point] under setting [1].

For the compound `O=c1nccc(NCc2ccco2)[nH]1`, the cell number change was -2.04%. In addition, the concentration at half-maximal activity (AC50) under setting [1] is 0.00184 µM [falling, full curve, poor fit].

Turning to `CC1=CC(C)(C)[N+](C)(C)c2ccc(C)cc21`, the cell number change stood at 9.62%. Moreover, the concentration at half-maximal activity (AC50) under setting [2] was 6.51 µM [falling, single point]. In addition, under setting [1], the AC50 was 6.51 µM [falling, single point].

On to `CCOC(=O)c1ccc(C(=O)OCC)nc1`, for which the cell number change was -72.7%. Also, under setting [2], the AC50 was 29.1 µM [falling, single point].

In the case of `COC(=O)c1ccc(-c2csc(NC(=O)c3c(C)noc3C)n2)cc1`, the cell number change was -19.6%. For the same compound, under setting [1], the AC50 is 1.46 µM [rising, partial curve].

With `CCOc1ccc(NC(=O)COC(=O)c2ccc3c(c2)OCO3)cc1`, the cell number change is -3.38%. The half-maximal activity concentration (AC50) under setting [1] was 29.1 µM [rising, single point].

With `O=C(O)CCc1ccc(-c2ccccc2)n1NC(=O)c1cccs1`, the cell number change amounted to 6.7%.

Turning to `O=C(/C=C/c1ccc2ccccc2n1)c1cc(Cl)ccc1O`, the cell number change came out at 3.74%. In addition, under setting [1], the AC50 was 5.8 µM [falling, full curve, poor fit].

As for `S=C(NCCCN1CCOCC1)Nc1ccc(Cl)c(Cl)c1`, the cell number change was found to be 4.97%. Besides, the AC50 under setting [1] is 0.326 µM [rising, full curve, poor fit].

Take `O=C(NC(=S)Nc1ccc([N+](=O)[O-])cc1O)C1CCCCC1`: the cell number change is -30.3%. Further, the AC50 under setting [2] was 32.6 µM [falling, single point]. Besides, under setting [1], the half-maximal activity concentration (AC50) was 20.6 µM [falling, single point].

As to `COC(=O)c1sc2ncccc2c1OCc1c(Cl)cccc1Cl`, the cell number change was -44.8%. In addition, the concentration at half-maximal activity (AC50) under setting [2] is 20.6 µM [falling, single point]. For the same compound, the half-maximal activity concentration (AC50) under setting [1] was 2.31 µM [falling, partial curve].

For `C=C(C)/C=N/NC(=S)Nc1ccc(S(=O)(=O)N2CCOCC2)cc1`, the cell number change was determined as 5.09%.

`Cc1nc2sc3c(O)cc(=O)[nH]c3c2c(C)c1C`: the cell number change was 18.1%. Besides, the half-maximal activity concentration (AC50) under setting [1] was 2.31 µM [rising, full curve, poor fit].

For the compound `NC(=S)N/N=C/c1ccc(-c2ccccc2)o1`, the cell number change is -1.48%. The half-maximal activity concentration (AC50) under setting [2] was 0.731 µM [rising, single point]. Under setting [1], the AC50 was 0.651 µM [rising, single point].

For the compound `CCc1noc(C)c1C(=O)OCC(=O)Nc1c(F)cccc1F`, the cell number change came to 1.61%.

`CC[C@@H](C)[C@H](CN[C@H](CNC)C(C)C)NC[C@@H](C)c1ccc(CC(C)C)cc1`: the cell number change is -0.299%. For the same compound, the half-maximal activity concentration (AC50) under setting [1] was 32.6 µM [rising, single point].

Take `O=C(Cc1ccc(S(=O)(=O)N2CCCC2)s1)Nc1nc2c(s1)CCCC2`: the half-maximal activity concentration (AC50) under setting [2] was 6.51 µM [rising, single point].

As to `CC(=O)Nc1ccc(S(=O)(=O)NCCC(=O)Nc2ncccc2C)cc1`, under setting [1], the AC50 is 8.2 µM [rising, partial curve].

Take `Cc1ccc(C(=O)NC2=NCCS2)cc1Cl`: the cell number change was determined as 34.7%. In addition, the AC50 under setting [1] was 6.51 µM [rising, single point].

For the compound `O=c1oc2ccccc2n1Cc1ccccc1F`, the cell number change was -22.5%.

For `CC(Sc1nnc(C(C)Oc2ccccc2F)o1)C(=O)NCc1ccc2c(c1)OCO2` (stereo not given), the cell number change was -6.38%. Besides, the concentration at half-maximal activity (AC50) under setting [1] is 0.651 µM [falling, partial curve, poor fit].

`O=C(N/N=C/c1ccc2ncccc2c1)c1ccco1`: the cell number change worked out at 27%. For the same compound, the concentration at half-maximal activity (AC50) under setting [1] was 0.517 µM [falling, single point].

Take `O=C(COc1cccc([N+](=O)[O-])c1)NN1C(=O)c2ccccc2C1=O`: the cell number change is 21%. Further, the half-maximal activity concentration (AC50) under setting [1] is 1.64 µM [rising, full curve, poor fit].

For the compound `CCN(CC)S(=O)(=O)c1ccc(NS(=O)(=O)c2ccc(OC)c([N+](=O)[O-])c2)cc1`, the cell number change came to 19%. Also, under setting [1], the AC50 is 16.4 µM [rising, single point].

As to `CC(C)N1CCC(N2CCN(Cc3ccc4nonc4c3)CC2CCO)CC1` (stereo not given), the cell number change stood at 16.8%. The AC50 under setting [1] was 6.51 µM [rising, single point].

For `CC(C)COc1ccc(C/C(N)=N/n2cnnc2)cc1`, under setting [1], the AC50 was 18.4 µM [falling, partial curve].

For `Cc1cc(C(=O)OCC(=O)NCCc2ccccc2)c2ccccc2n1`, the cell number change is -38.8%. The AC50 under setting [2] is 13 µM [falling, partial curve, poor fit]. For the same compound, the AC50 under setting [1] is 2.59 µM [falling, single point].
